Record: PubChem BioAssay AID1117269 (University of Michigan, 2014)
The deposit covers 714 reagents; shown is a random part of them. 49 of all reagents (6.9%) count as active. 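Active means a hit in at least one line; per-line hit columns show which; some siRNA pools appear more than once.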 No sequences are given here. The record does not give: the amount of reagent.

Test: 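Kinome-wide knockdown screen for regulators of TGF-beta reporter output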 (primary screen)
Cells: human A549 lung cancer and 1833 breast cancer (MDA-MB-231-derived) cell lines carrying a stable BTR luciferase reporter
Reagent: siRNA pool against human genes
Time to read-out: 72 h after transfection, then 1 h TGF-beta before the read
Conditions: TGF-beta 10 ng/mL added one hour before luciferin and read-out
Measurement: 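BTR reporter bioluminescence as fold change relative to non-targeting siRNA, averaging triplicates per line; knockdown for 72 h, then TGF-beta at 10 ng/mL 1 h prior to reading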
Scale: fold over scrambled siRNA, A549 and fold over scrambled siRNA, 1833: higher = more reporter light, weaker TGF-beta receptor signalling
Active means: 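Active if a hit in A549 or 1833; a line's hit exceeds an upper quartile-based cutoff on mean log fold values, applied per plate and across the whole screen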
Meaning of the calls: active = hit in at least one line; inactive = hit in neither line

no.	gene knocked down	fold over scrambled siRNA, A549	fold over scrambled siRNA, 1833	hit in A549	hit in 1833	activity call
1	CDK7	0.522	2.27	not a hit in A549	not a hit in 1833	inactive
2	NEK6	5.46	13.9	hit in A549	hit in 1833	active
3	MYLK4	4.66	8.83	not a hit in A549	not a hit in 1833	inactive
4	EPHA4	1.38	2.14	not a hit in A549	not a hit in 1833	inactive
5	DLG4	1.74	2.86	not a hit in A549	not a hit in 1833	inactive
6	PRKCG	2.29	4.78	not a hit in A549	not a hit in 1833	inactive
7	BTK	3.51	4.57	not a hit in A549	not a hit in 1833	inactive
8	BUB1	8.93	13.2	hit in A549	hit in 1833	active
9	FRK	5.33	6.37	not a hit in A549	not a hit in 1833	inactive
10	EPHA5	2.43	2.67	not a hit in A549	not a hit in 1833	inactive
11	ADPGK	1.79	1.13	not a hit in A549	not a hit in 1833	inactive
12	CDK14	1.6	6.47	not a hit in A549	not a hit in 1833	inactive
13	ATM	3.29	5.98	not a hit in A549	not a hit in 1833	inactive
14	TNNI3K	1.64	2	not a hit in A549	not a hit in 1833	inactive
15	CSNK1G1	1.05	2.33	not a hit in A549	not a hit in 1833	inactive
16	TP53RK	3.81	4.9	not a hit in A549	not a hit in 1833	inactive
17	STK17A	1.1	2.18	not a hit in A549	not a hit in 1833	inactive
18	ATR	0.714	1.2	not a hit in A549	not a hit in 1833	inactive
19	PRKCE	1.6	2.53	not a hit in A549	not a hit in 1833	inactive
20	CSNK1G2	4.52	7.14	not a hit in A549	not a hit in 1833	inactive
21	CSK	0.955	4.73	not a hit in A549	not a hit in 1833	inactive
22	GTF2H1	2.96	0.889	not a hit in A549	not a hit in 1833	inactive
23	SLK	2.48	5.56	not a hit in A549	not a hit in 1833	inactive
24	MAP3K20	6.35	10.2	hit in A549	not a hit in 1833	active
25	RPS6KL1	0.477	2.13	not a hit in A549	not a hit in 1833	inactive
26	EPHA6	0.458	0.556	not a hit in A549	not a hit in 1833	inactive
27	PCK2	1.62	2.1	not a hit in A549	not a hit in 1833	inactive
28	FLT1	4.62	5	not a hit in A549	not a hit in 1833	inactive
29	ERBB2	4.51	3.29	not a hit in A549	not a hit in 1833	inactive
30	DDR1	3.23	1.22	not a hit in A549	not a hit in 1833	inactive
31	HIPK4	3.35	1.81	not a hit in A549	not a hit in 1833	inactive
32	MET	3.52	0.593	not a hit in A549	not a hit in 1833	inactive
33	BUB1B	2.89	2.6	not a hit in A549	not a hit in 1833	inactive
34	NPR2	5.06	3.4	not a hit in A549	not a hit in 1833	inactive

Continued (4 carried over from the part before).
no.	gene knocked down	fold over scrambled siRNA, A549	fold over scrambled siRNA, 1833	hit in A549	hit in 1833	activity call
31	HIPK4	3.35	1.81	not a hit in A549	not a hit in 1833	inactive
32	MET	3.52	0.593	not a hit in A549	not a hit in 1833	inactive
33	BUB1B	2.89	2.6	not a hit in A549	not a hit in 1833	inactive
34	NPR2	5.06	3.4	not a hit in A549	not a hit in 1833	inactive
35	TTBK2	1.78	4.33	not a hit in A549	not a hit in 1833	inactive
36	CKS2	3.81	6.03	not a hit in A549	not a hit in 1833	inactive
37	MAST2	1.08	1.21	not a hit in A549	not a hit in 1833	inactive
38	CDC42BPA	2.19	1.33	not a hit in A549	not a hit in 1833	inactive
39	STK10	3.25	4.19	not a hit in A549	not a hit in 1833	inactive
40	ACVR2B	2.02	4.61	not a hit in A549	not a hit in 1833	inactive
41	BRD3	1.19	3.74	not a hit in A549	not a hit in 1833	inactive
42	CHEK1	0.897	2	not a hit in A549	not a hit in 1833	inactive
43	MAP3K5	2.57	2.33	not a hit in A549	not a hit in 1833	inactive
44	PRKCI	1	1.48	not a hit in A549	not a hit in 1833	inactive
45	SRPK1	2.01	11	not a hit in A549	hit in 1833	
46	CDK11B	1.43	2.87	not a hit in A549	not a hit in 1833	inactive
47	KSR2	1.6	18.9	not a hit in A549	hit in 1833	
48	PRKAB2	1.38	1.16	not a hit in A549	not a hit in 1833	inactive
49	MAPK8	1.56	1.87	not a hit in A549	not a hit in 1833	inactive
50	EPHA7	2.5	7.33	not a hit in A549	not a hit in 1833	inactive
51	RIPK4	1.62	1.48	not a hit in A549	not a hit in 1833	inactive
52	ACVR1	1.03	2.47	not a hit in A549	not a hit in 1833	inactive
53	PASK	1.33	2.71	not a hit in A549	not a hit in 1833	inactive
54	CSNK1G3	3.81	10.5	not a hit in A549	hit in 1833	
55	BRDT	10.4	1.19	hit in A549	not a hit in 1833	active
56	CDK11A	1.02	2.4	not a hit in A549	not a hit in 1833	inactive
57	ETNK2	1.02	7.19	not a hit in A549	not a hit in 1833	inactive
